According to PubChem BioAssay AID250 (DTP/NCI, 2004):
The list shows only some results of the screen, not a fair sample: it gathers tests that were run many times, whatever their T/C, doses with no T/C, and many T/C values between a quarter and a half above the control. Other doses and runs of a compound stand elsewhere. T/C: endpoint of the treated group in % of that of the vehicle group. Some entries give survivors of the animals treated and no T/C: the source files T/C as zero there, which appears to mark a toxic dose or a test without result, not a measured value. Some survivor counts are full or nearly so, which does not show that the dose was tolerated: the source hardly ever lists a survival T/C far under the control, and the zero likely stands for such cases as well. Counts of survivors are from the toxicity check (mostly the fifth day) where no day follows; animals may have died later. Schedule codes are those of the source, read here as Q, the interval in days (D) or hours (H), X, the number of doses. Where survival is the endpoint, this PubChem deposit counts one and a half times the control or more as active, and values a quarter to a half above the control carry no call in these data; other NCI protocols may use other cut-offs. Some entries were tested several times; the values are given in rising order. Marks such as (2×) count equal records among those shown. Some schedule codes hold Z or #, which are not explained here. Some T/C values carry the count of animals alive at the toxicity check (mostly the fifth day); where none is given, no animal had died by that day.

Tested on: BDF1 mice, L1210 leukemia sc, survival T/C
Experiment: NCI In Vivo Anticancer Drug Screen. Data for tumor model L1210 Leukemia (subcutaneous) in B6D2F1 (BDF1) mice
Details: vehicle: saline, higher T/C = longer survival
Procedure, shortened: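 Expressed as T/C: measurement in compound-treated, tumor-bearing mice relative to vehicle-treated control mice, based on survival or tumor size.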

Structure (SMILES): O=P1(N(CCCl)CCCl)NCCCO1 (stereo unspecified)
- survivor count (T/C endpoint: mean survival time, dose: 400.0 mg/kg/injection, schedule: Q01DX001 (ip)): 6 of 6
- survivor count (T/C endpoint: mean survival time, dose: 1120.0 mg/kg/injection, schedule: Q01DX001 (ip)): 6 of 6
- T/C (T/C endpoint: median survival time, dose: 14.0 mg/kg/injection, schedule: Q01DX Z (sc), run until all animals had died): 100, 116, 200 % of control
- T/C (T/C endpoint: median survival time, dose: 23.0 mg/kg/injection, schedule: Q01DX Z (sc), evaluated on day 34): 256 % of control
- T/C (T/C endpoint: median survival time, dose: 23.0 mg/kg/injection, schedule: Q01DX Z (sc), evaluated on day 36): 178 % of control
- T/C (T/C endpoint: median survival time, dose: 23.0 mg/kg/injection, schedule: Q01DX Z (sc), evaluated on day 40): 210 % of control
- T/C (T/C endpoint: median survival time, dose: 23.0 mg/kg/injection, schedule: Q01DX Z (sc), evaluated on day 60): 181 % of control
- T/C (T/C endpoint: median survival time, dose: 23.0 mg/kg/injection, schedule: Q01DX Z (sc), run until all animals had died): 160, 166 [9 of 10 alive], 210, 238, 294 % of control
- T/C (T/C endpoint: median survival time, dose: 39.0 mg/kg/injection, schedule: Q01DX Z (sc), evaluated on day 34): 275 and 300 % of control
- T/C (T/C endpoint: median survival time, dose: 39.0 mg/kg/injection, schedule: Q01DX Z (sc), evaluated on day 36): 221 % of control
- T/C (T/C endpoint: median survival time, dose: 39.0 mg/kg/injection, schedule: Q01DX Z (sc), evaluated on day 40): 270 % of control
- T/C (T/C endpoint: median survival time, dose: 39.0 mg/kg/injection, schedule: Q01DX Z (sc), evaluated on day 60): 245 % of control
- T/C (T/C endpoint: median survival time, dose: 39.0 mg/kg/injection, schedule: Q01DX Z (sc), run until all animals had died): 272 [8 of 10 alive], 275, 300, 320, 365, 388 % of control
- survivor count (T/C endpoint: median survival time, dose: 39.0 mg/kg/injection, schedule: Q08DX003 (ip)): 7 of 8
- survivor count (T/C endpoint: median survival time, dose: 50.0 mg/kg/injection, schedule: Q01DX001 (ip)): 5 of 8
- T/C (T/C endpoint: median survival time, dose: 50.0 mg/kg/injection, schedule: Q08DX002 (sc), evaluated on day 7): 117 % of control
- T/C (T/C endpoint: median survival time, dose: 50.0 mg/kg/injection, schedule: Q08DX002 (sc), evaluated on day 34): 115 % of control
- T/C (T/C endpoint: median survival time, dose: 65.0 mg/kg/injection, schedule: Q01DX001 (sc), evaluated on day 7): 151 % of control
- T/C (T/C endpoint: median survival time, dose: 65.0 mg/kg/injection, schedule: Q01DX001 (sc), evaluated on day 35): 155 % of control
- survivor count (T/C endpoint: median survival time, dose: 65.0 mg/kg/injection, schedule: Q01DX001 (sc)): 3 of 8
- T/C (T/C endpoint: median survival time, dose: 65.0 mg/kg/injection, schedule: Q01DX Z (sc), evaluated on day 34): 275 and 300 % of control
- T/C (T/C endpoint: median survival time, dose: 65.0 mg/kg/injection, schedule: Q01DX Z (sc), evaluated on day 36): 195 % of control
- T/C (T/C endpoint: median survival time, dose: 65.0 mg/kg/injection, schedule: Q01DX Z (sc), evaluated on day 40): 205 % of control
- T/C (T/C endpoint: median survival time, dose: 65.0 mg/kg/injection, schedule: Q01DX Z (sc), evaluated on day 60): 286 % of control
- T/C (T/C endpoint: median survival time, dose: 65.0 mg/kg/injection, schedule: Q01DX Z (sc), run until all animals had died): 205, 255, 261 [9 of 10 alive], 272, 300, 305 % of control
- survivor count (T/C endpoint: median survival time, dose: 65.0 mg/kg/injection, schedule: Q01HX002 (ip)): 8 of 8
- T/C (T/C endpoint: median survival time, dose: 65.0 mg/kg/injection, schedule: Q07DX003 (sc), evaluated on day 6): 186 % of control
- T/C (T/C endpoint: median survival time, dose: 65.0 mg/kg/injection, schedule: Q07DX003 (sc), evaluated on day 7): 101, 152, 172, 187 % of control
- T/C (T/C endpoint: median survival time, dose: 65.0 mg/kg/injection, schedule: Q07DX003 (sc), evaluated on day 30): 172 and 184 % of control
- T/C (T/C endpoint: median survival time, dose: 65.0 mg/kg/injection, schedule: Q07DX003 (sc), evaluated on day 33): 165 % of control
- T/C (T/C endpoint: median survival time, dose: 65.0 mg/kg/injection, schedule: Q07DX003 (sc), evaluated on day 35): 155 % of control
- survivor count (T/C endpoint: median survival time, dose: 65.0 mg/kg/injection, schedule: Q08DX003 (ip)): 8 of 8
- T/C (T/C endpoint: median survival time, dose: 100.0 mg/kg/injection, schedule: Q01DX001 (sc), evaluated on day 7): 98, 150, 168, 172, 173 (3×), 175, 177 % of control
- T/C (T/C endpoint: median survival time, dose: 100.0 mg/kg/injection, schedule: Q01DX001 (sc), evaluated on day 9): 161 % of control
- T/C (T/C endpoint: median survival time, dose: 100.0 mg/kg/injection, schedule: Q01DX001 (sc), evaluated on day 21): 180 % of control
- T/C (T/C endpoint: median survival time, dose: 100.0 mg/kg/injection, schedule: Q01DX001 (sc), evaluated on day 34): 100 % of control
- T/C (T/C endpoint: median survival time, dose: 100.0 mg/kg/injection, schedule: Q01DX001 (sc), evaluated on day 36): 177 % of control
- T/C (T/C endpoint: median survival time, dose: 100.0 mg/kg/injection, schedule: Q01DX001 (sc), evaluated on day 37): 177 % of control
- T/C (T/C endpoint: median survival time, dose: 100.0 mg/kg/injection, schedule: Q01DX001 (sc), evaluated on day 40): 166 % of control
- T/C (T/C endpoint: median survival time, dose: 100.0 mg/kg/injection, schedule: Q01DX001 (sc), evaluated on day 43): 173 and 177 % of control
- T/C (T/C endpoint: median survival time, dose: 100.0 mg/kg/injection, schedule: Q01DX001 (sc), evaluated on day 60): 160 and 177 % of control
- T/C (T/C endpoint: median survival time, dose: 100.0 mg/kg/injection, schedule: Q01DX001 (sc), run until all animals had died): 154 % of control
- T/C (T/C endpoint: median survival time, dose: 100.0 mg/kg/injection, schedule: Q08DX002 (sc), evaluated on day 7): 173, 218, 228, 232 % of control
- T/C (T/C endpoint: median survival time, dose: 100.0 mg/kg/injection, schedule: Q08DX002 (sc), evaluated on day 21): 170 % of control
- T/C (T/C endpoint: median survival time, dose: 100.0 mg/kg/injection, schedule: Q08DX002 (sc), evaluated on day 36): 222 % of control
- T/C (T/C endpoint: median survival time, dose: 100.0 mg/kg/injection, schedule: Q08DX002 (sc), evaluated on day 37): 233 % of control
- T/C (T/C endpoint: median survival time, dose: 100.0 mg/kg/injection, schedule: Q08DX002 (sc), evaluated on day 43): 233 % of control
- T/C (T/C endpoint: median survival time, dose: 100.0 mg/kg/injection, schedule: Q08DX003 (sc), evaluated on day 7): 102, 156, 180, 197 % of control
- T/C (T/C endpoint: median survival time, dose: 100.0 mg/kg/injection, schedule: Q08DX003 (sc), evaluated on day 32): 195 % of control
- T/C (T/C endpoint: median survival time, dose: 100.0 mg/kg/injection, schedule: Q08DX003 (sc), evaluated on day 34): 100 % of control
- T/C (T/C endpoint: median survival time, dose: 100.0 mg/kg/injection, schedule: Q08DX003 (sc), evaluated on day 42): 177 % of control
- T/C (T/C endpoint: median survival time, dose: 100.0 mg/kg/injection, schedule: Q08DX003 (sc), evaluated on day 43): 156 % of control [7 of 8 alive]
- T/C (T/C endpoint: median survival time, dose: 108.0 mg/kg/injection, schedule: Q01DX001 (sc), evaluated on day 6): 166 % of control
- T/C (T/C endpoint: median survival time, dose: 108.0 mg/kg/injection, schedule: Q01DX001 (sc), evaluated on day 7): 160, 169, 172, 179, 180, 186 % of control
- T/C (T/C endpoint: median survival time, dose: 108.0 mg/kg/injection, schedule: Q01DX001 (sc), evaluated on day 30): 160, 168, 186 % of control
- T/C (T/C endpoint: median survival time, dose: 108.0 mg/kg/injection, schedule: Q01DX001 (sc), evaluated on day 32): 172 and 173 % of control
- T/C (T/C endpoint: median survival time, dose: 108.0 mg/kg/injection, schedule: Q01DX001 (sc), evaluated on day 33): 165 and 188 % of control
- T/C (T/C endpoint: median survival time, dose: 108.0 mg/kg/injection, schedule: Q01DX001 (sc), evaluated on day 35): 188 % of control
- T/C (T/C endpoint: median survival time, dose: 108.0 mg/kg/injection, schedule: Q01DX001 (sc), evaluated on day 36): 166 % of control
- T/C (T/C endpoint: median survival time, dose: 108.0 mg/kg/injection, schedule: Q01DX001 (sc), evaluated on day 40): 185 % of control
- T/C (T/C endpoint: median survival time, dose: 108.0 mg/kg/injection, schedule: Q01DX001 (sc), run until all animals had died): 109 and 170 % of control
